# Data reported in the supplement of paper PMC8728848.
# The list shows a part of the results.
# B1: TAL6-4LysM (Trichoderma atroviride) (protein)
# chain: AADSIPSISPTGIITPTPTQSGMVSNCNKFYDVHSNDGCSAIASSQHVDLSSLYKWNPAIKTDCSGLQASVYVCIGILTTSMSTTSKLPTTTSKPSTTSKPPTGITTPTPTQSGMVKNCNKFYDVHSGDGCSAIASSQKVNLSSFYLWNPAVKTDCSGLQASVFVCIGTLTTSMSTTTSKLPTTTSKPSTTSKPPTGIITPTPTQNGMVKNCNKFYDVHSGDGCSAIASSQKVNLSSFYLWNPAVKTDCSGLQASVFVCVGTATTTTAAGITTPTPTQSGMVSGCNKFYDVHAGDGCSAIASSQKIALSSLYKWNPAVKTDCSGLQASVYICIGVGNAAAARVTGALEQKLISEEDLNSAVDHHHHHH
# What was measured:
# Experiment in all cases: glycan array binding signal (z-score within array); higher = stronger binding
# Conditions in all cases: glycan notation: IUPAC condensed, linker removed
# [1] = target: Fuc(a1-2)[GalNAc(a1-3)]Gal(b1-3)GlcNAc(b1-6)GalNAc
# Summary of the method: (§1)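 Columns mapping to the same glycan were averaged after glycan names were converted to IUPAC-condensed notation. The data come from 3228 arrays in the Consortium for Functional Glycomics database, limited to those with an available protein sequence. Binding is reported as a within-array Z-score averaged across arrays of one protein sequence and across linkers.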
# [2] = target: Fuc(a1-2)[GalNAc(a1-3)]Gal(b1-4)Glc
# Summary of the method: as §1
# [3] = target: Fuc(a1-2)[GalNAc(a1-3)]Gal(b1-4)GlcNAc
# Summary of the method: as §1
# [4] = target: Fuc(a1-2)[GalNAc(a1-3)]Gal(b1-4)GlcNAc(b1-2)Man
# Summary of the method: as §1
# [5] = target: Fuc(a1-2)[GalNAc(a1-3)]Gal(b1-4)GlcNAc(b1-2)Man(a1-3)[Fuc(a1-2)[GalNAc(a1-3)]Gal(b1-4)GlcNAc(b1-2)Man(a1-6)]Man(b1-4)GlcNAc(b1-4)GlcNAc
# Summary of the method: as §1
# [6] = target: Fuc(a1-2)[GalNAc(a1-3)]Gal(b1-4)GlcNAc(b1-2)Man(a1-3)[Fuc(a1-2)[GalNAc(a1-3)]Gal(b1-4)GlcNAc(b1-2)Man(a1-6)]Man(b1-4)GlcNAc(b1-4)[Fuc(a1-6)]GlcNAc
# Summary of the method: as §1
# [7] = target: Fuc(a1-2)[GalNAc(a1-3)]Gal(b1-4)GlcNAc(b1-3)Gal(b1-4)GlcNAc
# Summary of the method: as §1
# [8] = target: Fuc(a1-2)[GalNAc(a1-3)]Gal(b1-4)GlcNAc(b1-3)Gal(b1-4)GlcNAc(b1-3)Gal(b1-4)GlcNAc
# Summary of the method: as §1
# [9] = target: Fuc(a1-2)[GalNAc(a1-3)]Gal(b1-4)GlcNAc(b1-3)GalNAc
# Summary of the method: as §1
# [10] = target: Fuc(a1-2)[GalNAc(a1-3)]Gal(b1-4)GlcNAc(b1-3)[Fuc(a1-2)[GalNAc(a1-3)]Gal(b1-4)GlcNAc(b1-6)]GalNAc
# Summary of the method: as §1
# [11] = target: Fuc(a1-2)[GalNAc(a1-3)]Gal(b1-4)GlcNAc(b1-6)GalNAc
# Summary of the method: as §1
# [12] = target: Fuc(a1-2)[GalNAc(a1-3)]Gal(b1-4)[Fuc(a1-3)]GlcNAc
# Summary of the method: as §1
# [13] = target: Fuc(a1-2)[GalNAc(a1-3)]Gal(b1-4)[Fuc(a1-3)]GlcNAc(b1-3)GalNAc
# Summary of the method: as §1
# [14] = target: Fuc(a1-2)[GalNAc(a1-4)]Gal(b1-4)GlcNAc
# Summary of the method: as §1
# [15] = target: Fuc(a1-2)[GalNAc(b1-3)]Gal
# Summary of the method: as §1
# Fuc(a1-3)GlcNAc = target: Fuc(a1-3)GlcNAc
# Summary of the method: as §1
# [16] = target: Fuc(a1-3)[Gal(b1-4)]Glc6S
# Summary of the method: as §1
# [17] = target: Fuc(a1-3)[Gal(b1-4)]GlcNAc
# Summary of the method: as §1
# [18] = target: Fuc(a1-3)[Gal(b1-4)]GlcNAc(b1-2)Man
# Summary of the method: as §1
# [19] = target: Fuc(a1-3)[Gal(b1-4)]GlcNAc(b1-2)Man(a1-3)[Fuc(a1-3)[Gal(b1-4)]GlcNAc(b1-2)Man(a1-6)]Man(b1-4)GlcNAc(b1-4)GlcNAc
# Summary of the method: as §1
# [20] = target: Fuc(a1-3)[Gal(b1-4)]GlcNAc(b1-2)Man(a1-3)[Fuc(a1-3)[Gal(b1-4)]GlcNAc(b1-2)Man(a1-6)]Man(b1-4)GlcNAc(b1-4)[Fuc(a1-6)]GlcNAc
# Summary of the method: as §1
# [21] = target: Fuc(a1-3)[Gal(b1-4)]GlcNAc(b1-3)Gal(b1-3)[Fuc(a1-4)]GlcNAc
# Summary of the method: as §1
# [22] = target: Fuc(a1-3)[Gal(b1-4)]GlcNAc(b1-3)Gal(b1-4)[Fuc(a1-3)]GlcNAc
# Summary of the method: as §1
# [23] = target: Fuc(a1-3)[Gal(b1-4)]GlcNAc(b1-3)Gal(b1-4)[Fuc(a1-3)]GlcNAc(b1-3)Gal(b1-4)[Fuc(a1-3)]GlcNAc
# Summary of the method: as §1
# [24] = target: Fuc(a1-3)[Gal(b1-4)]GlcNAc(b1-3)GalNAc
# Summary of the method: as §1
# [25] = target: Fuc(a1-3)[Gal(b1-4)]GlcNAc(b1-6)GalNAc
# Summary of the method: as §1
# [26] = target: Fuc(a1-3)[Gal(b1-4)]GlcNAc(b1-6)[Gal(b1-3)GlcNAc(b1-3)]Gal(b1-4)Glc
# Summary of the method: as §1
# [27] = target: Fuc(a1-3)[Gal(b1-4)]GlcNAc6S
# Summary of the method: as §1
# [28] = target: Fuc(a1-3)[Gal3S(b1-4)]Glc
# Summary of the method: as §1
# [29] = target: Fuc(a1-3)[Gal3S(b1-4)]GlcNAc
# Summary of the method: as §1
# [30] = target: Fuc(a1-3)[Gal3S(b1-4)]GlcNAc6S
# Summary of the method: as §1
# [31] = target: Fuc(a1-3)[GalNAc(b1-4)]GlcNAc
# Summary of the method: as §1
# [32] = target: Fuc(a1-3)[GalNAc(b1-4)]GlcNAc6S
# Summary of the method: as §1
# Fuc(a1-4)GlcNAc = target: Fuc(a1-4)GlcNAc
# Summary of the method: as §1
# Fuc(b1-3)GlcNAc = target: Fuc(b1-3)GlcNAc
# Summary of the method: as §1
# Gal(a1-2)Gal = target: Gal(a1-2)Gal
# Summary of the method: as §1
# Gal(a1-3)Gal = target: Gal(a1-3)Gal
# Summary of the method: as §1
binder,measurement,setting,value
B1,glycan array binding signal (z-score),[1],-1.02
same,glycan array binding signal (z-score),[2],-0.621
same,glycan array binding signal (z-score),[3],0.034
same,glycan array binding signal (z-score),[4],1.86
same,glycan array binding signal (z-score),[5],-0.316
same,glycan array binding signal (z-score),[6],0.55
same,glycan array binding signal (z-score),[7],-0.014
same,glycan array binding signal (z-score),[8],-0.51
same,glycan array binding signal (z-score),[9],-0.418
same,glycan array binding signal (z-score),[10],-0.157
same,glycan array binding signal (z-score),[11],-0.55
same,glycan array binding signal (z-score),[12],-0.162
same,glycan array binding signal (z-score),[13],-0.732
same,glycan array binding signal (z-score),[14],-0.856
same,glycan array binding signal (z-score),[15],-0.491
same,glycan array binding signal (z-score),Fuc(a1-3)GlcNAc,-0.556
same,glycan array binding signal (z-score),[16],0.195
same,glycan array binding signal (z-score),[17],0.512
same,glycan array binding signal (z-score),[18],-0.996
same,glycan array binding signal (z-score),[19],0.948
same,glycan array binding signal (z-score),[20],0.619
same,glycan array binding signal (z-score),[21],0.455
same,glycan array binding signal (z-score),[22],-0.322
same,glycan array binding signal (z-score),[23],-1.67
same,glycan array binding signal (z-score),[24],-0.606
same,glycan array binding signal (z-score),[25],-0.062
same,glycan array binding signal (z-score),[26],0.549
same,glycan array binding signal (z-score),[27],0.66
same,glycan array binding signal (z-score),[28],-0.287
same,glycan array binding signal (z-score),[29],-0.556
same,glycan array binding signal (z-score),[30],0.519
same,glycan array binding signal (z-score),[31],3.19
same,glycan array binding signal (z-score),[32],-0.396
same,glycan array binding signal (z-score),Fuc(a1-4)GlcNAc,1.14
same,glycan array binding signal (z-score),Fuc(b1-3)GlcNAc,-0.301
same,glycan array binding signal (z-score),Gal(a1-2)Gal,-0.207
same,glycan array binding signal (z-score),Gal(a1-3)Gal,-0.661

# Reprinted from the entries so far for reference:
binder,measurement,setting,value
B1,glycan array binding signal (z-score),[26],0.549
same,glycan array binding signal (z-score),[27],0.66
